# The other results are listed elsewhere or left out.
# By UniProt entry, the sequences of proteins in these tests, tags left out. Where a name states a change or a piece, a line headed by the entry shows the natural chain unless it says otherwise.
# UniProt Q5BKZ1: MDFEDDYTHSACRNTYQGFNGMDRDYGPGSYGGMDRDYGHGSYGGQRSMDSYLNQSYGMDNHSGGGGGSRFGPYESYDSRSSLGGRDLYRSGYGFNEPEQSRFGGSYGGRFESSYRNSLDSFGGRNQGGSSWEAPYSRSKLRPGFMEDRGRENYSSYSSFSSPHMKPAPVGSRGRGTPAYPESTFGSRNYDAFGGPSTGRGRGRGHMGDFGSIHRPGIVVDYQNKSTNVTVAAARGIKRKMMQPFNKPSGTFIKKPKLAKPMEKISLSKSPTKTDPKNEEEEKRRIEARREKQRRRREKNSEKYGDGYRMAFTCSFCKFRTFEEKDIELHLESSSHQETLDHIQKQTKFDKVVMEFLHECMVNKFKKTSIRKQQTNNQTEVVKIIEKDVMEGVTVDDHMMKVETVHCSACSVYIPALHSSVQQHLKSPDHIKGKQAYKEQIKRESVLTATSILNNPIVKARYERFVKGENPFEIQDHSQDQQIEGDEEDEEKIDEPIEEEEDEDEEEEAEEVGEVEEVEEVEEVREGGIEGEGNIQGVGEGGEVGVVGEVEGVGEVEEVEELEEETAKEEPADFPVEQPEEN
# UniProt P17028: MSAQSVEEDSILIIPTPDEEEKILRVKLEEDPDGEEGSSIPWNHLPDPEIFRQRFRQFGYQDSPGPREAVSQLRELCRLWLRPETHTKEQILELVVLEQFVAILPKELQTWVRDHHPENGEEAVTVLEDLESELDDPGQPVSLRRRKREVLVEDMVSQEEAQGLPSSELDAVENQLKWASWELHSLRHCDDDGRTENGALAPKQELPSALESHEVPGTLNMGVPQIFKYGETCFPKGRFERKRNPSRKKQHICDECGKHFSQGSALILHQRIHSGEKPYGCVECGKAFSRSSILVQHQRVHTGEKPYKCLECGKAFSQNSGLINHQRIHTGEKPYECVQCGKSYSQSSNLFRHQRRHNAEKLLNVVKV
# UniProt Q96ME7: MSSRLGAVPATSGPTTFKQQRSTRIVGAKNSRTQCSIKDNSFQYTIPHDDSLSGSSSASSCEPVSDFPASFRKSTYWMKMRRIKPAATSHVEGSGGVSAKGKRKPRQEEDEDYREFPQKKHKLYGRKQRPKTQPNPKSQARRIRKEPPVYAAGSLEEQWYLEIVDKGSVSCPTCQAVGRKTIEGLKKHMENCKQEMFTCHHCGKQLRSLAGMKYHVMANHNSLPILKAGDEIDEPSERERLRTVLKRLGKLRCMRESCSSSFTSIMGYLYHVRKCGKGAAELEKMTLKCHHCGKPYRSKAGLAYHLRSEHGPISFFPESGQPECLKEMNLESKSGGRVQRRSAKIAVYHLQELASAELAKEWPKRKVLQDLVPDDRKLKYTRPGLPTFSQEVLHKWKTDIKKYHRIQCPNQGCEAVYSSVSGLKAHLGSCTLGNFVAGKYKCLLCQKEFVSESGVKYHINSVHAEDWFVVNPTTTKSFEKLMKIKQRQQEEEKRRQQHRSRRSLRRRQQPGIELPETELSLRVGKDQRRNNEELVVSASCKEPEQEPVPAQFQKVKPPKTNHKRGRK
# UniProt Q9Y4E5: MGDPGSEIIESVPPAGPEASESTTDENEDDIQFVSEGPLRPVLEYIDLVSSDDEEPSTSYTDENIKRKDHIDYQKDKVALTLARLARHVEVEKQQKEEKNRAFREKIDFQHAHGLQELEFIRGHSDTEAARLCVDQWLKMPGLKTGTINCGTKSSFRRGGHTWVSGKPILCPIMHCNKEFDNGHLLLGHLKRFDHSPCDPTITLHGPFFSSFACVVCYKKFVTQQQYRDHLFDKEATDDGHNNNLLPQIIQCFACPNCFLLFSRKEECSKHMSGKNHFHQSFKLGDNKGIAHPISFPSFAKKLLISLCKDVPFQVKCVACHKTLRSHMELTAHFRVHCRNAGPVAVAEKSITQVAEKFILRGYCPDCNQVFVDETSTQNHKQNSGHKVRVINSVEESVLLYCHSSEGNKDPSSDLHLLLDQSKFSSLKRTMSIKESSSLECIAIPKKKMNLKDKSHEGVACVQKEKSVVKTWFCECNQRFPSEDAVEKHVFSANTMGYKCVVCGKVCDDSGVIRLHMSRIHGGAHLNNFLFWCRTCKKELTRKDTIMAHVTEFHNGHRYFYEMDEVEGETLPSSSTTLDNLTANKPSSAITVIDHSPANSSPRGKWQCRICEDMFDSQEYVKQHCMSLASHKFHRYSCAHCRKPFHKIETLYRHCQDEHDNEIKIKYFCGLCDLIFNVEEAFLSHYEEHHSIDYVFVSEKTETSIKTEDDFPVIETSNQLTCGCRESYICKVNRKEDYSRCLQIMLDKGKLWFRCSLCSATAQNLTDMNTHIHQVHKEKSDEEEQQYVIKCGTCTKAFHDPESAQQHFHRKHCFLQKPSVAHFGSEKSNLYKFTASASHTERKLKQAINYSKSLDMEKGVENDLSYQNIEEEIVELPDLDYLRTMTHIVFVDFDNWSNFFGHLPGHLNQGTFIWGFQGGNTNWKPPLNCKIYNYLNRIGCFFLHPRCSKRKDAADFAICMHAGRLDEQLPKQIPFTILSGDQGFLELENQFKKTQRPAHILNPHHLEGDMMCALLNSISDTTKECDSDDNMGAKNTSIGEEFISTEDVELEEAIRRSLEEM
# UniProt Q9UBW7: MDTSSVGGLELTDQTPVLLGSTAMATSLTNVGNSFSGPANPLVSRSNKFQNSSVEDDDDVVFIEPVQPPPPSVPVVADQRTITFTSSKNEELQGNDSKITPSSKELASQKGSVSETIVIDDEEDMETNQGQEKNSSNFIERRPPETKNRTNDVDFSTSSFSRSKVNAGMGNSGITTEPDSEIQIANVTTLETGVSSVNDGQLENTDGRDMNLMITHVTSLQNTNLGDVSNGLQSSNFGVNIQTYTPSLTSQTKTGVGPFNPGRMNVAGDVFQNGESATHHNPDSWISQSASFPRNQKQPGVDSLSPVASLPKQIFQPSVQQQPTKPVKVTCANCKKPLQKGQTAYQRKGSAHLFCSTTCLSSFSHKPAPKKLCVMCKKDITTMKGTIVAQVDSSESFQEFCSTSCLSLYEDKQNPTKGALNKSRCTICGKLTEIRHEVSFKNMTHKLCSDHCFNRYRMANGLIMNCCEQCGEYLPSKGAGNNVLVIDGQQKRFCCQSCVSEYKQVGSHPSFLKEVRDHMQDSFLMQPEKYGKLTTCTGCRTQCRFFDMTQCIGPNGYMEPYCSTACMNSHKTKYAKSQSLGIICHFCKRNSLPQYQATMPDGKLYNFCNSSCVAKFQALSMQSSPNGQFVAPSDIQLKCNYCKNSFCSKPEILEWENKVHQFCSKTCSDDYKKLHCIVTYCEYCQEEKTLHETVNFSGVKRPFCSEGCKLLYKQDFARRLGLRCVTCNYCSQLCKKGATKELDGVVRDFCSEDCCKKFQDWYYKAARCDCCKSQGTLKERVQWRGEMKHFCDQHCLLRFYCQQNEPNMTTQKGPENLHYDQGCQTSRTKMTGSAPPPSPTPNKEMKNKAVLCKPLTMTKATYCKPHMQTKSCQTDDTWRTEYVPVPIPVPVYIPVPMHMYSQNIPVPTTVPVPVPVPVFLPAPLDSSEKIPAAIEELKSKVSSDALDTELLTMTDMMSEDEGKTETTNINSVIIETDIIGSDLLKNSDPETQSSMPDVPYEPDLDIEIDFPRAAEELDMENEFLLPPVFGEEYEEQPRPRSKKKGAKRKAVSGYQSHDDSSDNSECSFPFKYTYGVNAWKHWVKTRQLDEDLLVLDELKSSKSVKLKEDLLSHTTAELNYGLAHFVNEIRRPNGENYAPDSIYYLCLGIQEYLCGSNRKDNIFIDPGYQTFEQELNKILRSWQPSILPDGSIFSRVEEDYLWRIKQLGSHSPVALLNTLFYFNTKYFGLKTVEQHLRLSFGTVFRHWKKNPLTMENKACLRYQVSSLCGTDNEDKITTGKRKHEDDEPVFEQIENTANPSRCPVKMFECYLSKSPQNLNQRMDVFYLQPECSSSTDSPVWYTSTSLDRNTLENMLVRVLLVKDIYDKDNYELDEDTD
# UniProt Q14586: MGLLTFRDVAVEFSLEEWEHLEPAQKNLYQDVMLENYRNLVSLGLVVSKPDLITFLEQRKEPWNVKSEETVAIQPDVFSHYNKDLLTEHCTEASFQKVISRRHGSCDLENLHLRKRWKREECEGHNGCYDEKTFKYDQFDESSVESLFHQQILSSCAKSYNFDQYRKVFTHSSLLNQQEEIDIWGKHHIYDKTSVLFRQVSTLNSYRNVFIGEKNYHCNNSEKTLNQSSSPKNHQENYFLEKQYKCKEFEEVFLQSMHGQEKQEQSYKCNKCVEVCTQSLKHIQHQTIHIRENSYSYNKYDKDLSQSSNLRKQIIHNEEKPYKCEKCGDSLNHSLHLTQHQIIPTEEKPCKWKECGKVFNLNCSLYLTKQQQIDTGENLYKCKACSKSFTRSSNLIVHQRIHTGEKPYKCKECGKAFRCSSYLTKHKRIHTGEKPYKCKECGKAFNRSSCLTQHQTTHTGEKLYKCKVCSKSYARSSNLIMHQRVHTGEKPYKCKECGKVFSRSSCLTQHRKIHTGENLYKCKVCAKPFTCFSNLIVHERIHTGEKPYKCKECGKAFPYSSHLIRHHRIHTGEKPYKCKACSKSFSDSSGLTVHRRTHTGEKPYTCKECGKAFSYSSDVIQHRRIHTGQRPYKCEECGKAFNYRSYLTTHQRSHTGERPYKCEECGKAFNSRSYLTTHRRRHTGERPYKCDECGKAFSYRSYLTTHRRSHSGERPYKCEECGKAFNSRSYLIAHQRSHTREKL
# UniProt Q9Y3S2: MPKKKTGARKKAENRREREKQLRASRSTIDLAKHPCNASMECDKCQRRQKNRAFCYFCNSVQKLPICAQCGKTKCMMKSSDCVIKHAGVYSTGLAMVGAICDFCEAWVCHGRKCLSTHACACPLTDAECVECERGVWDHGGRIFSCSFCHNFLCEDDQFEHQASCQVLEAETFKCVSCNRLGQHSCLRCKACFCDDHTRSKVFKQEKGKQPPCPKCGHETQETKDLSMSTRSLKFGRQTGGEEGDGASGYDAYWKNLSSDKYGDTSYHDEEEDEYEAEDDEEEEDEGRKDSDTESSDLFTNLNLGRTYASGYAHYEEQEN
# UniProt O43670: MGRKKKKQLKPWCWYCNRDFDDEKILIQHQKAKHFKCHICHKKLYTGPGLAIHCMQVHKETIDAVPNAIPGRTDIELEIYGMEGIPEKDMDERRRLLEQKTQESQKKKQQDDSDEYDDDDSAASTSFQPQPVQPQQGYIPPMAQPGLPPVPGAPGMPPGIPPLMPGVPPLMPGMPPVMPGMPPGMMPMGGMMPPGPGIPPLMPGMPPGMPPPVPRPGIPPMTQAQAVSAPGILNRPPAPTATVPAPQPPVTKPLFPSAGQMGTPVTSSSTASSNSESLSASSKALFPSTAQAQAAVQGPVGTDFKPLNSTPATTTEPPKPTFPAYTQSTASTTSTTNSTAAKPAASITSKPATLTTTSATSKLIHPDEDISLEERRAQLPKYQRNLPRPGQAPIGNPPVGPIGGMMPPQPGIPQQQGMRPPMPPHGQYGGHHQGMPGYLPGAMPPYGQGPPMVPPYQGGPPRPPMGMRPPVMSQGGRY
# UniProt Q96KR1: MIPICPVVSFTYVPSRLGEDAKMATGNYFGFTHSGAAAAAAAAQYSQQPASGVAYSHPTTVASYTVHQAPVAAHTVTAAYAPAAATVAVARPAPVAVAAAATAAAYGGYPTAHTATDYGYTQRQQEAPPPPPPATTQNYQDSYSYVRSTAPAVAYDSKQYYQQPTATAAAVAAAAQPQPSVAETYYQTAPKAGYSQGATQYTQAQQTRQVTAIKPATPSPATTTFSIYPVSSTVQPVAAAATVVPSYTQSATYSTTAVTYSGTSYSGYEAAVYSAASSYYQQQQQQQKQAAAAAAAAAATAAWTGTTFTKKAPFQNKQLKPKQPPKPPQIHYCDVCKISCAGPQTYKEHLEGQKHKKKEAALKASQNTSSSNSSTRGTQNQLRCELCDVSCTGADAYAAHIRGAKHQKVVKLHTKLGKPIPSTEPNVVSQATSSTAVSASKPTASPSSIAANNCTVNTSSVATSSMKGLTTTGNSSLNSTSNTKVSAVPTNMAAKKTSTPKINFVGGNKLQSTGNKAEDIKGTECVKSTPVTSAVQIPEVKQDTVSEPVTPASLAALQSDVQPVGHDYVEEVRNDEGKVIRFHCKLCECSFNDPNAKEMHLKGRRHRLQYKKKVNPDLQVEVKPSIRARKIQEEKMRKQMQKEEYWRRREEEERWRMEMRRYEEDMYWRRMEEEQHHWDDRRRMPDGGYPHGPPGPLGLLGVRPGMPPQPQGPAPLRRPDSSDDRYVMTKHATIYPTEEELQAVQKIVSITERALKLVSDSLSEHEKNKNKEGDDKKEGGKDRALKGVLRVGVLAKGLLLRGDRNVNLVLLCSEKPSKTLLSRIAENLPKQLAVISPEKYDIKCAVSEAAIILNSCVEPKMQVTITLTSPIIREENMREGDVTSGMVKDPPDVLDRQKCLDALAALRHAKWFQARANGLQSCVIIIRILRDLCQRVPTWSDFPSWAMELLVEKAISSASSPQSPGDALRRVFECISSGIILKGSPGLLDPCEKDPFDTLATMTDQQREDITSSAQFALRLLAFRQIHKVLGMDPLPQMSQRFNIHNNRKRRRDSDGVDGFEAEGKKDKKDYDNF
# Compound: CC1Cc2ccccc2N1C(=O)C1CCCN(C1)C(=O)CCl (mixture of isomers) [TRIM25 ligand 11 (diastereomer mixture)]
# Test: probe-labelled cysteine peptide fold change vs DMSO (competition) (log2 fold change); higher = less target engagement (more negative = stronger competition)
# Details: 10 µM; THP-1; incubation time: 4 h
# 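Also: competitive chemoproteomic profiling in live THP-1 cells with an iodoacetamide desthiobiotin (IA-DTB) probe, comparing probe-labelled peptide intensities in compound-treated cells against DMSO-treated controls.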
row,Target,probe-labelled cysteine peptide fold change
1,ZNF598_Q86UK7_867_VCPTCQQVLAHGDASSHQALHAAR (UniProt Q86UK7),0.175
2,ZNF326_Q5BKZ1_360_VVMEFLHECMVNK (UniProt Q5BKZ1),0.0411
3,ZFPM1_Q8IX07_147_QAEPSPALTLLLVDEACWLR (UniProt Q8IX07),-0.097
4,ZNF460_Q14592_313_KPFACSECGK (UniProt Q14592),0.0432
5,ZNF24_P17028_189_HCDDDGRTENGALAPK (UniProt P17028),-0.0706
6,ZNF638_Q14966_688_EQSLHYGSVLLITELPEDGCTEEDVR (UniProt Q14966),-0.0726
7,ZNF512_Q96ME7_430_AHLGSCTLGNFVAGK (UniProt Q96ME7),-0.0498
8,ZNF451_Q9Y4E5_476_TWFCECNQR (UniProt Q9Y4E5),0.206
9,ZNF512_Q96ME7_171_GSVSCPTCQAVGR (UniProt Q96ME7),-0.000345
10,ZFX_P17010_664_CDMCDK (UniProt P17010),0.0057
11,ZNF638_Q14966_428_IFPHLCSLCNVECSHLK (UniProt Q14966),-0.0733
12,ZNF451_Q9Y4E5_176_GGHTWVSGKPILCPIMHCNK (UniProt Q9Y4E5),-0.0488
13,ZNF638_Q14966_1933_AGFFCPICSLFYSGEK (UniProt Q14966),-0.109
14,ZNF598_Q86UK7_44_CDHPVCYR (UniProt Q86UK7),0.0786
15,ZNF451_Q9Y4E5_507_VCDDSGVIR (UniProt Q9Y4E5),0.0216
16,ZMYM2_Q9UBW7_608_LYNFCNSSCVAK (UniProt Q9UBW7),-0.0314
17,ZMYND8_Q9ULU4_196_MKQPGTDAFQKPVPLEQHPDYAEYIFHPMDLCTLEK (UniProt Q9ULU4),-0.0551
18,ZNF267_Q14586_218_NYHCNNSEK (UniProt Q14586),-0.0919
19,ZNF687_Q8N1G0_91_NTVCPEQSEALAGGSAGDGAQAAGVTK (UniProt Q8N1G0),-0.0289

row,Target,probe-labelled cysteine peptide fold change
1,ZNF579_Q8NAF0_443_HAQVHAGGPAPHPCPR (UniProt Q8NAF0),0.238
2,ZNF516_Q92618_165_KGAEGSACAPGEAK (UniProt Q92618),-0.0814
3,ZNF330_Q9Y3S2_82_SSDCVIK (UniProt Q9Y3S2),-0.00147
4,ZMYM3_Q14202_1073_CWVQSK (UniProt Q14202),-0.101
5,ZNF598_Q86UK7_835_QQELLSAHTDFCNR (UniProt Q86UK7),-0.155
6,ZMYND8_Q9ULU4_94_NDFYCWVCHR (UniProt Q9ULU4),0.0533
7,ZNF207_O43670_13_QLKPWCWYCNR (UniProt O43670),-0.412
8,ZFR_Q96KR1_384_CELCDVSCTGADAYAAHIR (UniProt Q96KR1),0.222
9,ZFR_Q96KR1_991_GSPGLLDPCEK (UniProt Q96KR1),0.164
10,ZFR_Q96KR1_333_QPPKPPQIHYCDVCK (UniProt Q96KR1),0.0383
11,ZNF512_Q96ME7_192_HMENCK (UniProt Q96ME7),-0.0596
12,ZNF326_Q5BKZ1_314_MAFTCSFCK (UniProt Q5BKZ1),0.0214
13,ZFYVE21_Q9BQ24_99_QCAECALVSLK (UniProt Q9BQ24),-0.0829
14,ZNF451_Q9Y4E5_959_DAADFAICMHAGR (UniProt Q9Y4E5),-0.0144
15,ZFYVE27_Q5T4F4_353_RYPTNNFGNCTGCSATFSVLK (UniProt Q5T4F4),-0.247
16,ZNF638_Q14966_1156_ATCDSDFAVETLELETQGEEVK (UniProt Q14966),0.163
17,ZMYND8_Q9ULU4_1062_SCTQSATAPQQEADAEVNTETLNK (UniProt Q9ULU4),0.0214
18,ZMYM4_Q5VZL5_690_CQHCNR (UniProt Q5VZL5),0.455
19,ZMYM2_Q9UBW7_331_VTCANCK (UniProt Q9UBW7),-0.0194

# Same assay, conditions: 50 µM; THP-1; incubation time: 4 h
row,Target,probe-labelled cysteine peptide fold change
1,ZNF598_Q86UK7_867_VCPTCQQVLAHGDASSHQALHAAR (UniProt Q86UK7),0.023
2,ZNF326_Q5BKZ1_360_VVMEFLHECMVNK (UniProt Q5BKZ1),-0.027
3,ZFPM1_Q8IX07_147_QAEPSPALTLLLVDEACWLR (UniProt Q8IX07),0.238
4,ZNF460_Q14592_313_KPFACSECGK (UniProt Q14592),0.174
5,ZNF24_P17028_189_HCDDDGRTENGALAPK (UniProt P17028),-0.138
6,ZNF638_Q14966_688_EQSLHYGSVLLITELPEDGCTEEDVR (UniProt Q14966),-0.0326
7,ZNF512_Q96ME7_430_AHLGSCTLGNFVAGK (UniProt Q96ME7),-0.00274
8,ZNF451_Q9Y4E5_476_TWFCECNQR (UniProt Q9Y4E5),0.141
9,ZNF512_Q96ME7_171_GSVSCPTCQAVGR (UniProt Q96ME7),-0.0111
10,ZFX_P17010_664_CDMCDK (UniProt P17010),-0.0177
11,ZNF638_Q14966_428_IFPHLCSLCNVECSHLK (UniProt Q14966),0.239
12,ZNF451_Q9Y4E5_176_GGHTWVSGKPILCPIMHCNK (UniProt Q9Y4E5),-0.131
13,ZNF638_Q14966_1933_AGFFCPICSLFYSGEK (UniProt Q14966),0.178
14,ZNF598_Q86UK7_44_CDHPVCYR (UniProt Q86UK7),0.0744
15,ZNF451_Q9Y4E5_507_VCDDSGVIR (UniProt Q9Y4E5),0.0515
16,ZMYM2_Q9UBW7_608_LYNFCNSSCVAK (UniProt Q9UBW7),0.0341
17,ZMYND8_Q9ULU4_196_MKQPGTDAFQKPVPLEQHPDYAEYIFHPMDLCTLEK (UniProt Q9ULU4),-0.248
18,ZNF267_Q14586_218_NYHCNNSEK (UniProt Q14586),-0.0633
19,ZNF687_Q8N1G0_91_NTVCPEQSEALAGGSAGDGAQAAGVTK (UniProt Q8N1G0),-0.374

row,Target,probe-labelled cysteine peptide fold change
1,ZNF579_Q8NAF0_443_HAQVHAGGPAPHPCPR (UniProt Q8NAF0),0.156
2,ZNF516_Q92618_165_KGAEGSACAPGEAK (UniProt Q92618),-0.0975
3,ZNF330_Q9Y3S2_82_SSDCVIK (UniProt Q9Y3S2),-0.0344
4,ZMYM3_Q14202_1073_CWVQSK (UniProt Q14202),-0.0709
5,ZNF598_Q86UK7_835_QQELLSAHTDFCNR (UniProt Q86UK7),-0.302
6,ZMYND8_Q9ULU4_94_NDFYCWVCHR (UniProt Q9ULU4),0.134
7,ZNF207_O43670_13_QLKPWCWYCNR (UniProt O43670),-0.325
8,ZFR_Q96KR1_384_CELCDVSCTGADAYAAHIR (UniProt Q96KR1),0.0878
9,ZFR_Q96KR1_991_GSPGLLDPCEK (UniProt Q96KR1),0.0514
10,ZFR_Q96KR1_333_QPPKPPQIHYCDVCK (UniProt Q96KR1),0.0548
11,ZNF512_Q96ME7_192_HMENCK (UniProt Q96ME7),-0.0157
12,ZNF326_Q5BKZ1_314_MAFTCSFCK (UniProt Q5BKZ1),0.044
13,ZFYVE21_Q9BQ24_99_QCAECALVSLK (UniProt Q9BQ24),-0.0315
14,ZNF451_Q9Y4E5_959_DAADFAICMHAGR (UniProt Q9Y4E5),-0.0466
15,ZFYVE27_Q5T4F4_353_RYPTNNFGNCTGCSATFSVLK (UniProt Q5T4F4),-0.0647
16,ZNF638_Q14966_1156_ATCDSDFAVETLELETQGEEVK (UniProt Q14966),-0.289
17,ZMYND8_Q9ULU4_1062_SCTQSATAPQQEADAEVNTETLNK (UniProt Q9ULU4),0.224
18,ZMYM4_Q5VZL5_690_CQHCNR (UniProt Q5VZL5),0.332
19,ZMYM2_Q9UBW7_331_VTCANCK (UniProt Q9UBW7),0.0901
